Measured values reported in patent publication US20210261667A1.

Tests used:
[1] = molecular target: monkey PD-L1 (monkey); experiment: ELISA, coated antigen
[2] = molecular target: monkey PD-L1 (monkey); experiment: ELISA on coated antigen, A405 nm; single antibody concentration, 10 ug/mL by paragraph 203

- binding [1]: binds
- binding [2]: binds
B1: bivalent anti-PD-L1 single-domain antibody before humanization (Fc fusion, not shown: a dimerising Fc or GST)
chain: QVQLQESGGGSVQAGGSLRLSCTASGYNLSPSCMGWFRQAPGKEREGVAFTDADGSTRYADSVKARFTISRDNAENTLYLQMNSLKPEDTAMYYCAADFFSYCSVVFRASARDKYRGQGTQVTVSS

Results are given in words; binding and its absence hold for the method and conditions named. Binding can be weak; no strength is given.
